# Measurements from article PMC4360653.
# Results are given in words; binding and its absence hold for the method and conditions named. Some results given as binding are weak or reduced against the parent protein; the word gives no strength.
# B1: N-terminal fragment of CLCA1 (22–694; N-CLCA1), biotinylated and coupled to SA-PE (domain or fragment, UniProt A8K7I4 22-694)
# chain: NSLIQLNNNGYEGIVVAIDPNVPEDETLIQQIKDMVTQASLYLLEATGKRFYFKNVAILIPETWKTKADYVRPKLETYKNADVLVAESTPPGNDEPYTEQMGNCGEKGERIHLTPDFIAGKKLAEYGPQGRAFVHEWAHLRWGVFDEYNNDEKFYLSNGRIQAVRCSAGITGTNVVKKCQGGSCYTKRCTFNKVTGLYEKGCEFVLQSRQTEKASIMFAQHVDSIVEFCTEQNHNKEAPNKQNQKCNLRSTWEVIRDSEDFKKTTPMTTQPPNPTFSLLQIGQRIVCLVLDKSGSMATGNRLNRLNQAGQLFLLQTVELGSWVGMVTFDSAAHVQNELIQINSGSDRDTLAKRLPAAASGGTSICSGLRSAFTVIRKKYPTDGSEIVLLTDGEDNTISGCFNEVKQSGAIIHTVALGPSAAQELEELSKMTGGLQTYASDQVQNNGLIDAFGALSSGNGAVSQRSIQLESKGLTLQNSQWMNGTVIVDSTVGKDTLFLITWTMQPPQILLWDPSGQKQGGFVVDKNTKMAYLQIPGIAKVGTWKYSLQASSQTLTLTVTSRASNATLPPITVTSKTNKDTSKFPSPLVVYANIRQGASPILRASVTALIESVNGKTVTLELLDNGAGADATKDDGVYSRYFTTYDTNGRYSVKVRALGGVNAARRRVIPQQSG
# modifications: biotin on the C-terminal BirA biotin ligase recognition motif
# Target: T1, TMEM16A (human (endogenous in HEK293T)) (UniProt Q5XXA6)
# T1 sequence: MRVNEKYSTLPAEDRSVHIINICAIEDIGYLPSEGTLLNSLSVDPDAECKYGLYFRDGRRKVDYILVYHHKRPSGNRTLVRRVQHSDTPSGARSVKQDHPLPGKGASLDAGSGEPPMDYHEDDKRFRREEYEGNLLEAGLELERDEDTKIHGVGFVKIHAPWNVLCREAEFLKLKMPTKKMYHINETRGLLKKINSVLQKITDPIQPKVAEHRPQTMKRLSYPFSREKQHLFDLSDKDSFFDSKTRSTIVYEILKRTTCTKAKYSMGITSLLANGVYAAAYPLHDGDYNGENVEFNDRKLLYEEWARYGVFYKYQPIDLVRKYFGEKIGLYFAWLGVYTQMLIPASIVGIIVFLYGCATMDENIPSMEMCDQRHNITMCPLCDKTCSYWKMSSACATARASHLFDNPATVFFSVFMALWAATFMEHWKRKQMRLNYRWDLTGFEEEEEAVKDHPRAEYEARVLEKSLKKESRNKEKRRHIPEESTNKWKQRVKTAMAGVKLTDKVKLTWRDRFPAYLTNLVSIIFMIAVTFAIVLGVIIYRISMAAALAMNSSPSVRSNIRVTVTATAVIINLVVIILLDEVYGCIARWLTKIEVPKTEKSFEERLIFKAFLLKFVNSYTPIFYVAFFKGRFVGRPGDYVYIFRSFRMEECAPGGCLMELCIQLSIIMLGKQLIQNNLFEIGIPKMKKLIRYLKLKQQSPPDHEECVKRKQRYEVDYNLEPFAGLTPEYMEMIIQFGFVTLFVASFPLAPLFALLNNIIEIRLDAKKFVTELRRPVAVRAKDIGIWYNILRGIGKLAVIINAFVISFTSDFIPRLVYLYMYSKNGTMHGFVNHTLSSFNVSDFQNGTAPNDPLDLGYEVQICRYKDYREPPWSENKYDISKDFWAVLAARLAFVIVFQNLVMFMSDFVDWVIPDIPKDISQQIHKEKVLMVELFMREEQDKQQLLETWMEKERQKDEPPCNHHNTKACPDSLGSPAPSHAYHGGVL
# Test: flow cytometry on cells; intact HEK293T cells (4 × 10^5 cells/sample, FcR blocked) stained with N-CLCA1/SA-PE tetramers (1:50) in PBS with 1% BSA at 4°C; SA-PE alone as background; with or without pre-incubation with anti-TMEM16A antibody S-20 (1:10) or control antibodies C-5 and G-19; only the binder purified
binder,measurement,value
B1,binding,binds
